Substitutions are numbered along the chain they refer to. Numbers in names are those of the source. Results are given in words; binding and its absence hold for the method and conditions named. For part of these data: In cells and extracts the contact can be indirect. Some results given as binding are weak or reduced against the parent protein; the word gives no strength. For part of these data: Tags and fused reporters may be left off the sequences shown. Each block holds one binder with its values, some of them ahead of it.
Columns and labels:
[1] = target: T1, Nse4 (subunit of the budding yeast Smc5/6 holo-complex) (budding yeast) (UniProt P43124); experiment: cross-linking
T1 sequence: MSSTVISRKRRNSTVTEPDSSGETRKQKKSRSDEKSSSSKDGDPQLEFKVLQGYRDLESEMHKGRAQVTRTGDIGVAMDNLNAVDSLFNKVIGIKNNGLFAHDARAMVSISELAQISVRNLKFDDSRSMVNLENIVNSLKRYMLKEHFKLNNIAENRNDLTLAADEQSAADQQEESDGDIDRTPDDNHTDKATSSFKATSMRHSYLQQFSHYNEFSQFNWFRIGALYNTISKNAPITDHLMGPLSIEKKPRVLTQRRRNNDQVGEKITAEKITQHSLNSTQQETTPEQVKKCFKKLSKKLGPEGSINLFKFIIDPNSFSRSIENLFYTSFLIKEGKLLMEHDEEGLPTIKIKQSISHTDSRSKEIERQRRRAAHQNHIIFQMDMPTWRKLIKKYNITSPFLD

[2] = target: T2, Nse1 (subunit of the budding yeast Smc5/6 holo-complex) (budding yeast) (UniProt Q07913); experiment: cross-linking
T2 sequence: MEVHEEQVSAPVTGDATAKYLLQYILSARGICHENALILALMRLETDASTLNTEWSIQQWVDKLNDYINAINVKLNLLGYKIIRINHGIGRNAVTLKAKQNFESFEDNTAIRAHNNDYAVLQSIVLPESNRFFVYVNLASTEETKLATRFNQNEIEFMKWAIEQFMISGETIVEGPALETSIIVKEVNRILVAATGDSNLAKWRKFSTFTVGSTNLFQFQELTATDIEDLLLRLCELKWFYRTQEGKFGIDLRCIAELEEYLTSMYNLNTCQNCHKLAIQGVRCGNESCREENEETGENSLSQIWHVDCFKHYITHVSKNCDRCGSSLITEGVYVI

[3] = target: T3, Nse3 (subunit of the budding yeast Smc5/6 holo-complex) (budding yeast) (UniProt Q05541); experiment: cross-linking
T3 sequence: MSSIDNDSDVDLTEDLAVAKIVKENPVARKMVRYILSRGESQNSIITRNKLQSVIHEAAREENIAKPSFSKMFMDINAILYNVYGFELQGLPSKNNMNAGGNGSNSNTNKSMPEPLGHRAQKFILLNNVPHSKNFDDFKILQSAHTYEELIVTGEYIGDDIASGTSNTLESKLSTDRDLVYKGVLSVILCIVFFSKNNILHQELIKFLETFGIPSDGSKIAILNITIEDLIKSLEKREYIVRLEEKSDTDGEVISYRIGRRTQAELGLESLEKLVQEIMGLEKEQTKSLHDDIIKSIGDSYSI

[4] = target: T4, Nse3 (subunit of the budding yeast Smc5/6 holo-complex) (budding yeast), Q05541; experiment: cross-linking; conditions: remark: other sources report otherwise
T4 chain: T3 sequence

[5] = target: T5, Nse4 (subunit of the budding yeast Smc5/6 holo-complex) (budding yeast), P43124; experiment: cross-linking; conditions: remark: other sources report otherwise
T5 chain: T1 sequence

[6] = target: T6, Nse1 (subunit of the budding yeast Smc5/6 holo-complex) (budding yeast), Q07913; experiment: cross-linking; conditions: remark: other sources report otherwise
T6 chain: T2 sequence

[7] = target: T7, GST-tagged Nse6-S326W (region II mutant) (budding yeast) (UniProt P40026); experiment: pull-down
T7 sequence: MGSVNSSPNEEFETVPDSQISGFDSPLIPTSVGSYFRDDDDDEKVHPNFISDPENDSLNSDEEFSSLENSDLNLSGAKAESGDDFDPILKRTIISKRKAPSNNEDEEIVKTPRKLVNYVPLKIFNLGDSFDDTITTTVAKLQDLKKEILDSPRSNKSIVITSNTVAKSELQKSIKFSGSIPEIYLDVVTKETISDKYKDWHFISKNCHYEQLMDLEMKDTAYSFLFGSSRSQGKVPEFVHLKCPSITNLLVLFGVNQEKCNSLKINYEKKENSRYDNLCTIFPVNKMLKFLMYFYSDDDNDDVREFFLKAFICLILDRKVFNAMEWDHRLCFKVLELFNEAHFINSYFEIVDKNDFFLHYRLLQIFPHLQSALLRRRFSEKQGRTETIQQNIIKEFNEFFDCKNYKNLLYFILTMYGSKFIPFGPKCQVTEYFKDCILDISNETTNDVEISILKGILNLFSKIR

[8] = target: T8, GST-tagged Nse6-Y209A, I281W (region III mutant) (budding yeast) (UniProt P40026); experiment: pull-down
T8 sequence: T7 sequence with Y209A, I281W, W326S

[9] = target: T9, GST-tagged Nse6, wild type (budding yeast) (UniProt P40026); experiment: pull-down
T9 sequence: T7 sequence with W326S

[10] = target: T10, Nse6, yeast two-hybrid fusion (budding yeast) (UniProt P40026); experiment: two-hybrid
T10 sequence: T7 sequence with W326S

[11] = target: SUMO, yeast two-hybrid fusion [SUMO: Q12306]; experiment: two-hybrid

binding [4]: no binding | binding [5]: no binding | binding [6]: no binding
B2: Nse2 SUMO ligase (subunit of the budding yeast Smc5/6 holo-complex), P38632 1-267 (protein)
chain: MALNDNPIPKSVPLHPKSGKYFHNLHARDLSNIYQQCYKQIDETINQLVDSTSPSTIGIEEQVADITSTYKLLSTYESESNSFDEHIKDLKKNFKQSSDACPQIDLSTWDKYRTGELTAPKLSELYLNMPTPEPATMVNNTDTLKILKVLPYIWNDPTCVIPDLQNPADEDDLQIEGGKIELTCPITCKPYEAPLISRKCNHVFDRDGIQNYLQGYTTRDCPQAACSQVVSMRDFVRDPIMELRCKIAKMKESQEQDKRSSQAIDVL

binding [7]: binds | binding [9]: binds
B4: His6-tagged Nse5-Q109A (region II mutant) (protein, UniProt Q03718 1-556)
chain: MDGALINSVLYVSPRNGAHYFVELTEKHLLAFEMLNSMCLLENYDHVLLFLECQFGKSHNLAVIPFDIILVLFTLSTLSEYYKEPILRANDPYNTSRETLSRRALKLLAKYLAILKEFDSEQYNLYDLELLRCQFFLAIDTLTPKKQKWGFDRFRRTKSESGVTYRQNASVDPELDQAKTFKNPYRSYISCLEQRNTILGNRLLNLKLNEPGEFINMILWTLSNSLQESTPLFLSSHEIWMPLLEILIDLFSCRQDYFIQHEVAQNVSKSLFVQRLSESPLAVFFESLNTRNFANRFSEYVFLNCDYKLPSDNYATPVHPVYNGENTIVDTYIPTIKCSPLYKSQKSLALRRKLIGSCFKLLLRVPDGHRLITPRIVADDVIQGISRTLASFNDILQFKKFFMTENLSQESYFIPLLAEGTLSEILKDTQECVVILTLVENLSDGVSFCNEVIGLVKSKCFAFTEQCSQASYEEAVLNIEKCDVCLLVLLRYLLHLIGTEAILDAKEQLEMLHAIEKNDSGRRQWAKALNLGNDPPLLYPIVSQMFGVHDKSVIIE

binding [10]: binds | binding [11]: binds
B5: Nse5, wild type, yeast two-hybrid fusion (protein, UniProt Q03718 1-556)
chain: B4 chain with A109Q

Continued, binder first:

B1: Nse6 (subunit of the budding yeast Smc5/6 holo-complex) (protein, UniProt P40026 1-464)
chain: T7 sequence with W326S
binding [1]: no binding | binding [2]: no binding | binding [3]: no binding

B3: His6-tagged Nse5, wild type (protein, UniProt Q03718 1-556)
chain: B4 chain with A109Q
binding [7]: binds | binding [8]: binds | binding [9]: binds

B6: His6-tagged Nse5-K337, S339W (region III mutant) (protein, UniProt Q03718 1-556)
chain: B4 chain with A109Q, K337W, S339W
binding [8]: binds | binding [9]: binds
